{"source": "patent US12098176B2", "about": "“Keratin BD-4, preparation method, and pharmaceutical composition and use thereof” (Institute of Materia Medica, Chinese Academy of Medical …, priority 2019, dated 2024)", "molecules": {"B1": {"name": "BD-4: recombinant keratin, amino acid sequence SEQ ID NO: 1, expressed in E. coli; the protein of Example 4 was tested (protein, listed as Bos taurus)", "chain": "MSYSCCLPNLSFRSSCSSRPCVPSSCCGTTLPGACNIPANVGSCNWFCEGSFNGSEKETMQFLNDRLASYLEKVRQLERDNAELESRILERSQQQEPLVCPNYQSYFRTIEELQQKILCSKSENARLVVQIDNAKLASDDFRTKYETEVSLRQLVEADLNGLRRILDELTLCKSDLEARVESLKEELICLKQNHEQEVNTLRSQLGDRLNVEVDAAPTVDLNRVLNETRAQYEALVETNRRDVEEWYIRQTEELNKQVVSSSEQLQSYQAEIIELRRTVNALEVELQAQHNLRDSLENTLTETEARYSCQLAQVQGLIGNVESQLAEIRSDLERQNQEYQVLLDVRARLECEINTYRGLLDSEDCKLPCNPCATTNACERPCISNPCVSRARCGPCNTFVH"}}, "test_system": "lipopolysaccharide (LPS) induced fever in rats", "assay": "Lipopolysaccharide (LPS) induced fever in SD rats", "assay_type": "in vivo, rat", "settings": "before modeling", "experimental": "Experimental example 2 The pharmacodynamic test of protein BD-4 (Example 4 protein) on lipopolysaccharide (LPS) induced fever in SD rats.\nExperiment Grouping: • Model group: lipopolysaccharide fever model; • Positive control group: Aspirin 300 mg/kg group, • Protein BD-4, 10 mg/kg group, 50 mg/kg group. Method: the method of intraperitoneal injection of Lipopolysaccharide to create fever model in rats.\nPreparation of experimental animals: After the experimental animals adapt to the experimental environment (temperature 22° C.±2° C., relative humidity 50%±2%) for 1 day. […] Insert the rat rectum 2 cm (can be marked at 2 cm to ensure that the depth of each insertion is consistent), and record the body temperature after the reading is stable.\nIntraperitoneal injection of lipopolysaccharide to replicate rat fever model: The body temperature of the rats was measured before modeling. […] After oral administration of aspirin and different doses of protein BD-4, lipopolysaccharide (20 μg/kg, 2 ml/kg) was injected intraperitoneally immediately, and the normal control group was injected intraperitoneally with an equal volume of normal saline. the rats' body temperature was monitored after 2 hours for a total of 8 hours. […]"}
{"molecule": "B1", "values": [{"measurement": "Basal body temperature", "setting": "BD-4 10 mg/kg group", "result": "36.9 ± 0.1", "unit": "°C"}, {"measurement": "Basal body temperature", "setting": "BD-4 50 mg/kg group", "result": "36.8 ± 0.1", "unit": "°C"}]}
